± gives the standard deviation of the averaged measurements. Most values lie at the level of the controls, where differences are scatter.
Assays:
Experiment in all cases: level (log10 ratio to DMSO vehicle control); higher = higher biomarker level / cell amount than vehicle control
[1] = compound: O=C(O)C(F)(F)OC(F)(F)C(F)(F)OC(F)(F)C(F)(F)C(F)(F)C(F)(F)F [Perfluoro-3,6-dioxadecanoic acid]; conditions: 2200 nM; in DMSO
Procedure: (§1)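 BioMAP Diversity Plus panel of 12 human primary cell co-culture systems (3C, 4H, LPS, SAg, BT, BF4T, BE3C, CASM3C, HDF3CGF, KF3CT, MyoF, Mphg). Compounds were added 1 h before stimulation and left for 24 h (MyoF 48 h; BT 72 h for soluble read-outs or 6 d for IgG). Biomarkers were read by ELISA, cytotoxicity by SRB, PBMC viability and proliferation by Alamar Blue. Each well value was divided by the mean of 8 DMSO control wells on the same plate and log10 transformed; duplicate blinded samples were tested at 4 concentrations.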

[2] = compound: O=C(O)C(F)(F)C(F)(F)OC(F)(F)F [Perfluoro-3-methoxypropanoic acid]; conditions: 2200 nM; in DMSO
Procedure: as §1

[3] = compound: FC(F)C(F)(F)COCC1CO1 [((2,2,3,3-Tetrafluoropropoxy)methyl)oxirane]; conditions: 2200 nM; in DMSO
Procedure: as §1

[4] = compound: O=C(O)C(F)(F)C(F)(F)C(F)(F)C(F)(F)C(F)(F)C(F)(F)C(F)(F)C(F)(F)C(F)(F)C(F)(F)F [Perfluoroundecanoic acid]; conditions: in DMSO
Procedure: as §1

[5] = compound: OCCC(F)(F)C(F)(F)C(F)(F)C(F)(F)C(F)(F)C(F)(F)C(F)(F)C(F)(F)F [8:2 Fluorotelomer alcohol]; conditions: 2200 nM; in DMSO
Procedure: as §1

[6] = compound: OCC(F)(F)C(F)(F)C(F)(F)C(F)(F)C(F)(F)C(F)(F)C(F)(F)C(F)(F)C(F)(F)C(F)(F)C(F)(F)F [11:1 Fluorotelomer alcohol]; conditions: in DMSO
Procedure: as §1

[7] = compound: O=C(O)C(F)(F)C(F)(F)C(F)(F)C(F)(F)C(F)(F)C(F)(F)C(F)(F)C(F)F [9-H-Perfluorononanoic acid]; conditions: 2200 nM; in DMSO
Procedure: as §1

[8] = compound: O=C(O)C(F)(F)OC(F)(F)C(F)(F)OC(F)(F)C(=O)O [Perfluoro-3,6-dioxaoctane-1,8-dioic acid]; conditions: 2200 nM; in DMSO
Procedure: as §1

[9] = compound: O=C(O)C(F)(F)C(F)(F)F [Perfluoropropanoic acid]; conditions: 2200 nM; in DMSO
Procedure: as §1

[10] = compound: O=C(O)C(F)(F)C(F)(F)C(F)(F)F [Perfluorobutanoic acid]; conditions: 2200 nM; in DMSO
Procedure: as §1

[11] = compound: NC(=O)C(F)(F)C(F)(F)C(F)(F)C(F)(F)C(F)(F)C(F)(F)C(F)(F)F [Perfluorooctanamide]; conditions: 2200 nM; in DMSO
Procedure: as §1

[12] = compound: C=CC(=O)OCC(F)(F)C(F)(F)C(F)(F)C(F)(F)COC(=O)C=C [1H,1H,6H,6H-Perfluorohexane-1,6-diol diacrylate]; conditions: 2200 nM; in DMSO
Procedure: as §1

[13] = compound: O=P(O)(O)CCC(F)(F)C(F)(F)C(F)(F)C(F)(F)C(F)(F)C(F)(F)C(F)(F)C(F)(F)F [((Perfluorooctyl)ethyl)phosphonic acid]; conditions: 2200 nM; in DMSO
Procedure: as §1

[14] = compound: O=C(O)C=CC(F)(C(F)(F)F)C(F)(F)F [3-(Perfluoroisopropyl)-2-propenoic acid]; conditions: in DMSO
Procedure: as §1

[15] = compound: FC(F)(F)C(F)(F)C(F)(F)C(F)(F)C(F)(F)C(F)(F)C(F)(F)CCI [1-Iodo-1H,1H,2H,2H-perfluorononane]; conditions: in DMSO
Procedure: as §1

[16] = compound: O=S(=O)(Cl)C(F)(F)C(F)(F)C(F)(F)C(F)(F)C(F)(F)C(F)(F)C(F)(F)C(F)(F)F [Perfluoro-1-octanesulfonyl chloride]; conditions: 2200 nM; in DMSO
Procedure: as §1

[17] = compound: C=C(C)C(=O)OCC(F)(F)C(F)(F)C(F)(F)F [2,2,3,3,4,4,4-Heptafluorobutyl methacrylate]; conditions: 2200 nM; in DMSO
Procedure: as §1

[18] = compound: FC(F)(F)C(F)(F)C(F)(F)C(F)(F)C(F)(F)C(F)(F)C(F)(F)I [1-Iodopentadecafluoroheptane]; conditions: in DMSO
Procedure: as §1

Row | Test System | level (log10) [1] | level (log10) [2] | level (log10) [3] | level (log10) ([4]; 740 nM) | level (log10) ([4]; 2200 nM) | level (log10) [5] | level (log10) ([6]; 370 nM) | level (log10) ([6]; 1100 nM) | level (log10) ([6]; 3300 nM) | level (log10) ([6]; 10000 nM) | level (log10) [7] | level (log10) [8] | level (log10) [9] | level (log10) [10] | level (log10) [11] | level (log10) [12] | level (log10) [13] | level (log10) ([14]; 2200 nM) | level (log10) ([14]; 6700 nM) | level (log10) ([14]; 20000 nM) | level (log10) ([14]; 60000 nM) | level (log10) ([15]; 740 nM) | level (log10) ([15]; 2200 nM) | level (log10) ([15]; 6700 nM) | level (log10) ([15]; 20000 nM) | level (log10) [16] | level (log10) [17] | level (log10) ([18]; 740 nM) | level (log10) ([18]; 2200 nM) | level (log10) ([18]; 6700 nM) | level (log10) ([18]; 20000 nM)
1 | HDF3CGF:TIMP-2 | 0.0005 ± 0.0078 | -0.0155 ± 0.013 | -0.0165 ± 0.033 | -0.0405 ± 0.063 | 0.018 ± 0.071 | -0.0745 ± 0.13 | -0.023 | 0.001 ± 0.0042 | -0.045 ± 0.016 | -0.0325 ± 0.013 | -0.0785 ± 0.056 | -0.013 ± 0.048 | -0.0265 ± 0.0021 | -0.022 ± 0.0071 | -0.0145 ± 0.029 | -0.006 ± 0.079 | 0.0485 ± 0.037 | -0.005 ± 0.011 | -0.0105 ± 0.0021 | -0.0045 ± 0.011 | -0.0115 ± 0.012 | 0.001 ± 0.0057 | -0.0035 ± 0.018 | 0.0165 ± 0.011 | 0.0055 ± 0.0064 | -0.0025 ± 0.04 | -0.025 ± 0.021 | 0.0045 ± 0.026 | 0.0015 ± 0.036 | 0.015 ± 0.0057 | 0.0035 ± 0.0035
2 | CASM3C:CD141/Thrombomodulin | -0.0025 ± 0.049 | 0.017 ± 0.051 | -0.0065 ± 0.056 | -0.042 ± 0.065 | -0.059 ± 0.072 | 0.0125 ± 0.015 | 0 ± 0.013 | -0.0155 ± 0.012 | -0.012 ± 0.025 | -0.0155 ± 0.005 | -0.023 ± 0.0057 | 0.01 ± 0.055 | -0.038 ± 0.023 | 0.0145 ± 0.015 | 0.014 ± 0.013 | 0.092 ± 0.0085 | 0.004 ± 0.057 | 0.0055 ± 0.032 | -0.0215 ± 0.011 | -0.001 ± 0.023 | 0.0075 ± 0.033 | -0.008 ± 0.0099 | 0.0025 ± 0.018 | 0.0135 ± 0.0035 | 0.0065 ± 0.03 | 0.001 ± 0.0099 | -0.009 ± 0.033 | -0.025 ± 0.04 | -0.06 ± 0.0028 | -0.0595 ± 0.021 | -0.0445 ± 0.021
3 | KF3CT:TIMP-2 | -0.0345 ± 0.0021 | -0.005 ± 0.014 | 0.004 ± 0.03 | -0.0405 ± 0.011 | -0.011 ± 0.0071 | -0.01 ± 0.024 | 0.005 ± 0.0014 | -0.014 ± 0.0028 | -0.0405 ± 0.013 | 0.002 ± 0.016 | -0.0135 ± 0.033 | -0.011 | -0.012 ± 0.044 | 0.0015 ± 0.015 | 0.0125 ± 0.013 | -0.019 ± 0.011 | 0.0125 ± 0.012 | 0.007 ± 0.0085 | -0.01 ± 0.013 | 0.007 ± 0.031 | 0.0205 ± 0.023 | -0.001 ± 0.037 | -0.009 ± 0.0071 | 0.0145 ± 0.03 | -0.0035 ± 0.0064 | -0.006 ± 0.0014 | -0.0105 ± 0.015 | -0.0235 ± 0.013 | -0.0285 ± 0.0064 | -0.009 ± 0.021 | -0.0225 ± 0.00071
4 | 3C:CD141/Thrombomodulin | -0.009 ± 0.028 | 0.0075 ± 0.049 | -0.006 ± 0.023 | -0.02 ± 0.057 | -0.032 ± 0.038 | 0.039 ± 0.017 | 0.004 ± 0.024 | 0.0225 ± 0.021 | 0.0705 ± 0.00071 | 0.09 ± 0.02 | 0 ± 0.024 | 0.0175 ± 0.042 | -0.006 ± 0.014 | -0.0345 ± 0.079 | -0.013 ± 0.016 | -0.018 ± 0.0085 | -0.0005 ± 0.018 | -0.005 ± 0.0085 | -0.0125 ± 0.023 | -0.006 ± 0.0057 | 0.0045 ± 0.016 | -0.0035 ± 0.0078 | -0.0045 ± 0.00071 | -0.028 ± 0.0014 | -0.01 ± 0.041 | 0.013 ± 0.035 | 0.0265 ± 0.015 | 0.0155 ± 0.019 | 0.0025 ± 0.064 | -0.0215 ± 0.071 | -0.008 ± 0.081
5 | BT:sIL-6 | 0.0715 ± 0.0092 | 0.0085 ± 0.046 | 0.0495 ± 0.036 | -0.0475 ± 0.021 | 0.0175 ± 0.016 | 0.075 ± 0.031 | 0.1 ± 0.018 | 0.209 ± 0.0092 | 0.116 ± 0.034 | 0.083 ± 0.085 | -0.016 ± 0.0028 | -0.0405 ± 0.012 | -0.0105 ± 0.043 | 0.05 ± 0.04 | -0.019 ± 0.031 | -0.181 ± 0.059 | 0.016 ± 0.089 | 0.0285 ± 0.057 | 0.032 ± 0.089 | -0.0455 ± 0.056 | -0.025 ± 0.03 | 0.0085 ± 0.052 | -0.0435 ± 0.0021 | 0.009 ± 0.017 | -0.0575 ± 0.042 | 0.0155 ± 0.028 | 0.0555 ± 0.028 | -0.047 ± 0.031 | 0.029 ± 0.03 | -0.0825 ± 0.0078 | 0.024 ± 0.044
6 | LPS:CCL2/MCP-1 | 0.009 ± 0.011 | -0.006 ± 0.059 | 0.008 | 0.034 ± 0.027 | 0.005 ± 0.0028 | 0.0085 ± 0.033 | -0.0035 ± 0.026 | -0.001 ± 0.0028 | -0.011 ± 0.011 | -0.009 ± 0.035 | -0.0075 ± 0.0064 | -0.002 ± 0.027 | 0.005 ± 0.0085 | -0.004 ± 0.0057 | -0.0155 ± 0.032 | 0.016 ± 0.028 | 0.0075 ± 0.03 | -0.0045 ± 0.021 | 0.004 ± 0.0085 | -0.0155 ± 0.013 | -0.0015 ± 0.0021 | 0.0245 ± 0.0035 | -0.0135 ± 0.005 | -0.008 ± 0.016 | 0.0145 ± 0.04 | 0.019 ± 0.051 | -0.0085 ± 0.04 | 0.011 ± 0.011 | -0.0005 ± 0.016 | 0.0035 ± 0.00071 | 0.0225 ± 0.0021
7 | LPS:CD62E/E-Selectin | 0.018 ± 0.014 | -0.0065 ± 0.019 | 0.0275 ± 0.00071 | 0.005 ± 0.023 | -0.0425 ± 0.022 | 0.004 ± 0.045 | 0.02 ± 0.0071 | 0.016 ± 0.0085 | 0.01 ± 0.0099 | 0.015 ± 0.014 | -0.004 ± 0.05 | 0.0015 ± 0.0092 | -0.0085 ± 0.005 | -0.0015 ± 0.013 | 0.0085 ± 0.0064 | 0.0145 ± 0.00071 | 0.014 ± 0.021 | 0.0005 ± 0.039 | 0.0055 ± 0.015 | -0.013 ± 0.0042 | 0.0165 ± 0.0035 | 0.025 ± 0.021 | 0.026 ± 0.0014 | -0.003 ± 0.027 | -0.0175 ± 0.057 | -0.0085 ± 0.035 | 0.0105 ± 0.0064 | -0.0365 ± 0.0064 | -0.036 ± 0.02 | -0.0155 ± 0.005 | -0.002 ± 0.0071

From the supplement of paper PMC10331698
